{"source": "PubChem BioAssay AID1347076", "about": "(National Center for Advancing Translational Sciences (NCATS), 2019)", "note": "About 13,000 (3.2%) of roughly 400,000 compounds were called active. Inconclusive means that the source gave no clear call. Such entries were picked first, then a sample of the others. The call rests on the fitted dose curve; in most records, active means well fitted cell-killing curve with a large enough effect; inconclusive means small, poorly fitted or top-dose-only effect, or effect the other way; inactive means flat fitted curve, though single readings scatter. A potency beside an inconclusive call is a rough fit, not a confirmed value. On the % scale 0 is the no-effect control and ±100 the full control effect; potency means the concentration at half of the fitted maximal effect.", "data": [{"experiment": "qHTS assay for MDR1-selective chemotherapeutics: Primary screen using the drug-selected MDR subline cells KB-V1; further: nearly all actives have a fitted effect of over 60% in size", "settings": "KB-V1 MDR cells viability, CellTiter-Glo, 72 h; activity change, negative = cytotoxicity: at 46.1 µM (top of the series)", "in_short": "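Luminescent ATP read-out (CellTiter-Glo, 10 min) measures survival of drug-selected KB-V1 MDR cells after 72 h, 37 degrees C compound exposure. Medium: phenol-red-free DMEM, 10% FBS. Values from fitted concentration-response curves.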", "values": [{"smiles": "O=C(NCC(c1cccnc1)N1CCc2ccccc21)C(=O)Nc1ccccc1F", "note": "(configuration not stated)", "activity change, negative = cytotoxicity": "inactive: -8.46%"}, {"smiles": "CCc1cccc(NC(=O)c2cccc3c2C(=O)N(C2CCCCC2)C3)c1", "Potency": "inconclusive: 29.1 µM [rising, single point]"}, {"smiles": "CCc1cc2c(NC3CCCC3)ncnc2s1", "activity change, negative = cytotoxicity": "inactive: 2.62%"}, {"smiles": "CCOC(=O)c1ccc(NC(=O)N2CCN(c3ccccn3)CC2)cc1", "Potency": "active: 16.4 µM"}, {"smiles": "CC(=O)Nc1cc(Cl)c(N=Cc2ccc(O)cc2O)cc1Cl", "Potency": "inconclusive: 29.1 µM [rising, single point]"}, {"smiles": "O=C(NCCCN1CCCC1=O)C1CCN(S(=O)(=O)c2cc(C(F)(F)F)ccc2Cl)CC1", "Potency": "inconclusive: 23.1 µM [rising, single point]"}, {"smiles": "CC(=O)c1cccn1S(=O)(=O)c1ccccc1", "activity change, negative = cytotoxicity": "inconclusive: 0.407%"}, {"smiles": "Cc1ccc(OCc2occc2C(=O)O)cc1", "Potency": "inconclusive: 0.461 µM [rising, full curve, poor fit]"}, {"smiles": "O=C(N/N=C/c1ccc2ncccc2c1)c1cccc([N+](=O)[O-])c1", "Potency": "inconclusive: 18.4 µM [rising, single point]"}, {"smiles": "CCOC(=O)c1c(C)n(S(=O)(=O)c2ccc(C)cc2)c2ccc(NS(=O)(=O)c3ccc(C)cc3)cc12", "Potency": "inconclusive: 16.4 µM [cytotoxic, single point]"}, {"smiles": "O=C(NCc1ccc(F)cc1)c1ccc(CNc2c(N3CCOCC3)c(=O)c2=O)cc1", "Potency": "inconclusive: 8.2 µM [rising, partial curve, poor fit]"}, {"smiles": "Cc1ccc(C(=O)Oc2cccc(-n3cnnn3)c2)cc1", "Potency": "inconclusive: 9.2 µM [rising, partial curve, poor fit]"}, {"smiles": "COC(=O)Nc1sc2c(c1C(N)=O)CCCC2", "activity change, negative = cytotoxicity": "inactive: 4.56%"}, {"smiles": "N#CC(=C1SC=CS1)c1nc(-c2ccccc2)cs1", "Potency": "inconclusive: 16.4 µM [cytotoxic, partial curve]"}, {"smiles": "CC(NC(=O)c1cc(-c2ccc(Cl)cc2)on1)c1ccccc1", "note": "(configuration not stated)", "activity change, negative = cytotoxicity": "inactive: 5.67%"}, {"smiles": "Cc1ccc(S(=O)(=O)NN=CC=CC=NNS(=O)(=O)c2ccc(C)cc2)cc1", "activity change, negative = cytotoxicity": "inactive: 9.46%"}, {"smiles": "CCOC(=O)c1c(C)[nH]c(C(=O)COC(=O)CCS(=O)(=O)c2ccc(C)cc2)c1C", "Potency": "inconclusive: 23.1 µM [cytotoxic, single point]"}, {"smiles": "O=C(N/N=C/c1cccs1)[C@H]1C[C@@H]1c1ccccc1", "Potency": "inconclusive: 29.1 µM [cytotoxic, partial curve, poor fit]"}, {"smiles": "Clc1ccc(CN2C3=NCCN3c3ccccc32)cc1Cl", "Potency": "active: 20.6 µM"}, {"smiles": "CCOc1ccc(OCC)c(NC(=O)CN(C)S(=O)(=O)c2ccc3nc(C)sc3c2)c1", "Potency": "inconclusive: 7.31 µM [cytotoxic, partial curve]"}, {"smiles": "CCNS(=O)(=O)c1ccc2c3c(cccc13)C(=O)N2", "Potency": "inconclusive: 23.1 µM [cytotoxic, partial curve, poor fit]"}, {"smiles": "CN(C)CCCN(C(=O)c1ccc(Br)s1)c1nc2cc3c(cc2s1)OCCO3", "Potency": "inconclusive: 20.6 µM [cytotoxic, single point]"}, {"smiles": "CCOC(=O)c1nnn(CC(=O)NC(=O)Nc2ccc(F)cc2)c1C(=O)OCC", "Potency": "inconclusive: 29.1 µM [rising, single point]"}, {"smiles": "CC(C)(C)OC(=O)N(CCc1ccccc1)Cc1ccccc1OCc1ccc(NC(=O)C2CCC2)cc1", "Potency": "inconclusive: 20.6 µM [cytotoxic, single point]"}, {"smiles": "Cc1ccc(C)c(NCC(=O)NNC(=S)Nc2ccccc2)c1", "activity change, negative = cytotoxicity": "inactive: -0.161%"}, {"smiles": "O=C(CSc1nnc(CNC(=O)c2cccs2)o1)Nc1ccc(Br)cc1", "Potency": "inconclusive: 13 µM [rising, partial curve, poor fit]"}, {"smiles": "O=C(/C=C/c1ccc(S(=O)(=O)N2CCOCC2)cc1)NC(CO)C(O)c1ccc([N+](=O)[O-])cc1", "note": "(configuration not stated)", "Potency": "inconclusive: 29.1 µM [rising, single point]"}, {"smiles": "O=C(c1ccc(Cl)c(Cl)c1)N1CCC(=O)N(C(COCc2cccc(C(F)(F)F)c2)Cc2ccccc2)CC1", "note": "(configuration not stated)", "Potency": "inconclusive: 32.6 µM [cytotoxic, single point]"}, {"smiles": "CC1(C(=O)N2CC3(CC(c4cccc(NC(=O)CC(c5ccccc5)c5ccccc5)c4)=NO3)C[C@@H]2C(N)=O)CC1", "note": "(some centres not stated)", "Potency": "inconclusive: 20.6 µM [rising, single point]"}, {"smiles": "CCCS/C(N)=N/N=C/c1cc(C)ccc1O", "Potency": "inconclusive: 29.1 µM [cytotoxic, single point]"}, {"smiles": "Cc1ccc(S(=O)(=O)N2CCn3cccc3C2C)cc1", "note": "(configuration not stated)", "Potency": "active: 13 µM"}, {"smiles": "Cc1ccccc1C(=O)Nc1ccc2oc(-c3ccc(Cl)c(Cl)c3)nc2c1", "Potency": "inconclusive: 23.1 µM [rising, partial curve, poor fit]"}, {"smiles": "C=CCn1c(-c2oc3nc(-c4ccccc4)cc(-c4ccccc4)c3c2N)n[nH]c1=S", "Potency": "active: 9.2 µM"}, {"smiles": "c1ccc(CSc2nnc(-c3ccncc3)o2)cc1", "Potency": "inconclusive: 29.1 µM [cytotoxic, partial curve, poor fit]"}, {"smiles": "O=c1c2ccccc2cnn1CCOc1ccccc1", "Potency": "inconclusive: 23.1 µM [cytotoxic, single point]"}, {"smiles": "Cc1nc2c(-c3ccccc3)cnn2c(N)c1-c1ccccc1", "Potency": "inconclusive: 25.9 µM [cytotoxic, single point]"}, {"smiles": "Cc1cccc(CNC(=O)c2cc(S(=O)(=O)N3CCOCC3)cn2C)c1", "Potency": "inconclusive: 14.6 µM [rising, partial curve, poor fit]"}, {"smiles": "COc1cccc(CNC(=O)Cn2c(SCC(=O)Nc3ccc(C)c(C)c3)nc3ccccc32)c1", "Potency": "inconclusive: 29.1 µM [cytotoxic, single point]"}, {"smiles": "O=S1(=O)c2ccc(Br)cc2OC(COCc2ccccc2)CN1Cc1ccccc1", "note": "(configuration not stated)", "Potency": "inconclusive: 6.51 µM [cytotoxic, full curve]"}, {"smiles": "O=C(COC(=O)COc1ccccc1)Nc1ccc(Br)cc1F", "Potency": "inconclusive: 20.6 µM [rising, partial curve, poor fit]"}, {"smiles": "O=C(NCC1CCCO1)c1sc2ccccc2c1Cl", "note": "(configuration not stated)", "Potency": "inconclusive: 23.1 µM [cytotoxic, single point]"}, {"smiles": "CCCCOC(=O)Nc1cc(C(=O)OC)ccc1C(=O)OC", "Potency": "inconclusive: 20.6 µM [cytotoxic, single point]"}]}]}
